Reference: publication PMC7718874, “Coupling of H3K27me3 recognition with transcriptional repression through the BAH-PHD-CPL2 complex in Arabidopsis” (Nature Communications, 2020)
These are yes or no findings as the source states them, for the method shown. Some binding calls cover weakened binding; strength is not graded here. Where a sequence is shown, tags or fusion partners need not be part of it. Each block holds one binder with its values, some of them ahead of it.

How the values were obtained:
[1] = biological target: T1, AIPP3, full-length, yeast two-hybrid fusion (Arabidopsis) (UniProt Q8RXT5); assay: two-hybrid; yeast two-hybrid, AD (pGADT7) and BD (pGBKT7) constructs, growth on SD -LW or -LWH plates, 30 °C, 3 d
T1 sequence: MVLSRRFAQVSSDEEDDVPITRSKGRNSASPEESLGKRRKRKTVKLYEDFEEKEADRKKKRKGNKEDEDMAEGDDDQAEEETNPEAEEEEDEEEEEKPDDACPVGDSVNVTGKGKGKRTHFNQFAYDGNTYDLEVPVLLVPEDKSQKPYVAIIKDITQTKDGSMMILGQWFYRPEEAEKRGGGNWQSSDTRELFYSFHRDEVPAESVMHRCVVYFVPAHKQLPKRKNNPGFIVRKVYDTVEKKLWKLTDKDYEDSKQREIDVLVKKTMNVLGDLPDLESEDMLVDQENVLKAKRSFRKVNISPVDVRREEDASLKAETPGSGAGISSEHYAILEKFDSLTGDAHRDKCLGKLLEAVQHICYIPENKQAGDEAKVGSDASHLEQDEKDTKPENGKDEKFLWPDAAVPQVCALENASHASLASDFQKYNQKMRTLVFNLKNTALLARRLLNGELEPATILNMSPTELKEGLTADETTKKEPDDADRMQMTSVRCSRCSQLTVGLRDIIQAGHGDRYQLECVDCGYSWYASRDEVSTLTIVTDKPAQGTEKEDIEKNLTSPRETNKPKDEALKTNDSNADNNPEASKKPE

[2] = biological target: T2, CPL2, full-length, yeast two-hybrid fusion (Arabidopsis) (UniProt Q5YDB5); assay: as above
T2 sequence: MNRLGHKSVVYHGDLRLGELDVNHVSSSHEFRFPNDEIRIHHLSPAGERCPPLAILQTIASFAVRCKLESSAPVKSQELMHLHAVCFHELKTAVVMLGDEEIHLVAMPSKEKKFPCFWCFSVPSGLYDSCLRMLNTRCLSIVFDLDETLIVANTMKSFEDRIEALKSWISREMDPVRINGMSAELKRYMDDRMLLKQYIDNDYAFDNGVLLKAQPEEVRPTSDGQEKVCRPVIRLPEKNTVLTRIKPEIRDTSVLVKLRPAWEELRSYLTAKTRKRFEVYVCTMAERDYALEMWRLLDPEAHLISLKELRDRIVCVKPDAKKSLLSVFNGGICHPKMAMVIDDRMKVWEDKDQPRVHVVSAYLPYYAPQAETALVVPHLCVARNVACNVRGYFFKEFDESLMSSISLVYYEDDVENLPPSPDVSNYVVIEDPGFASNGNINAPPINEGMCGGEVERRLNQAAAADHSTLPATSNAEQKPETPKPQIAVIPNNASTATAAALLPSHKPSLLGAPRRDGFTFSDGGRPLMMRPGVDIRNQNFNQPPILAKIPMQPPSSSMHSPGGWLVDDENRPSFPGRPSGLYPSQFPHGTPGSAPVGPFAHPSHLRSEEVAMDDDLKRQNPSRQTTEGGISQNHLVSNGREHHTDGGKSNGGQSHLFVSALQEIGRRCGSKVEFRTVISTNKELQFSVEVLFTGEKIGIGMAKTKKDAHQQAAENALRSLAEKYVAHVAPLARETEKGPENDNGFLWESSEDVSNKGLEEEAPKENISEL

[3] = biological target: T3, ASI1-IMMUNO… PROTEIN 3 (AIPP3), epitope-tagged in transgenic Arabidopsis (Arabidopsis) (UniProt Q8RXT5); assay: SEC; gel filtration of total proteins of seedlings expressing AIPP3-FLAG, AIPP2-4MYC, PAIPP2-3FLAG and CPL2-4MYC in IP buffer on Superdex 200 10/300GL; fractions read by western blotting
T3 sequence: T1 sequence

binding [1]: binds
binding [2]: binds
B1: AIPP2, full-length, yeast two-hybrid fusion (protein, UniProt F4IYH6 1-994)
chain: MADRRVGNRPMGRRGRLEIQSGTCNVCSAPCSSCMHHNAEFSGSKSDESSDENSHGVLASQCSFNGDNLLRSSGVNAPGSSHNTSSEASHLVNSNHDTSSENAESKEIIRSSDISHGPLLDRPHKDQDSMKVDSCNDHQARSTLGQGKVKEKSGAKNNEEKKNTLTGSSKHSGPRVGKSGENVLLNKADESNTSAMSDSESENDPEMLELDVKVCDTCGDAGREDLLAICSRCSDGAEHTYCMRVMLKKVPKGYWLCEECKFAEKAEKHKLETKRKRESEVNVNTQISSKRHIDKFEAVPDSKRLAVGAQIGSPKRSVLPRMSTLSRETSFKGLEKPTRKLAHYSSFNSHSSDDTESTRSTDSQLQSPKGSFLKSNSFNSLSSRSKVRPVDDDMLPRQKTGNENSSLEVKEGFSKNVGKSMSSRCIDVGSSNCNDSKVKGSKQLKDWSTEANPSASISRGNSSIPYAKSPRDLKDLQSDGKQGSLSKQARHLSRNRLEDIVASVGDSSKNEKCSSSEQISSEAKCKDELAQVDGVPRSREFREAGEKTKDAVGNHQKRNIGEDNNKGNRLRAAVDAALRKKPSFSKNRGLEQSDLPPVSNVDSGCNKALKCLSSKVPVIRDWPVGFQGLPGGHPNLRTDKQTNTVNEKQFTLAGTDATTASQSVEPEVNDPSVQSVMRDLPVAAPNVLSTTSAIPKPEYIWQGDLEVQKSRNLSAMHSGIQAYLSTLASPKVVEVVKQFPEKVTLNEVPRLSSWPAQFQDTGAKEQHVALFFFAKDIESYEKNYKPLVDNMIQKDLALKGNLEGVELLIFASNQLPQDCQRWNMLFFLWGVFRGKKESCSNPPKNTPLPASCVSPNRDTFRHENPSNKKSLTDRTLSRMQSCMKEEDAKEGKACSGTEKENAFSVSYGEGEVDVETEEGEIGVSPQLKYEKTAGPGTVKSADMNQRVNVDDLNKEGLCEGPANKKLKTVTGVETGCSIVRRDTSVHKFASRKFV

binding [3]: binds
B2: AIPP2, epitope-tagged in transgenic Arabidopsis (protein, UniProt F4IYH6 1-994)
chain: B1 chain

binding [3]: binds
B3: PARALOG OF AIPP2 (PAIPP2), epitope-tagged in transgenic Arabidopsis (protein, UniProt F4KE59 1-1311)
chain: MADRRVGKRQMGQRGFSKVESGTCNVCSAPCSSCMHRNVGFTGSKLDESSDENCHGVVGSQCSVNEDDLLPSSMVNAHKSLNNTASEASNLVNSSHDALSENAESKETIRCSGISDDSGAAAMTSKPSLSGSRMKHKVSASANMLDQSSNCIEDQEDGILSADRAKQLKSGCSNNEIGNKDLADGSALNSDPIPGGSRKDEVKLESLQNPSSNHDDRVSSEKGNFKEKSRPGGNKERQEPSVEGSTRSGENRKDGKSSKSSSSNSSAVSESESDDSEMVEHDVKVCDICGDAGREDLLAICSGCSDGAEHTYCMREMLDEVPEGDWLCEECAEEAEKQKQEAKRKRETEVTFNTYSSGKRHADKIEAAPDAKRQVVEASTGSPKKSILPRVGALSRETSFKGLDRLRGKLNHQTSFSDDTESARSAGSQLQPPKGAFLKSSSFNCSSSKPKVQLMDDAIHPRQKTGKEDTALDLKVGGFRNVGKSMPSRTTDAGNSGGSDSQAKMLGSKVYHSQEGKSLKQVKDRNREANASASSIDQKLKSRGNSSVSHANNNRDLKGLQSDGKRGNLTKQVSNLSRNRLENSVVSGGDISTNEKCSASEQSSSQADCKDELPSTSCTGEGMPNHGTVALQDGLPRSRVPREVGKKSKEAFSKRQRSSLLAGAKGLPSSQKGGQTAESSDTSGVSDSDLSTTKNVKEDLNKGNRLRAAVDAALRKKPSFGKNRVLEQSDASLVANVDSSSEKTLRNQLPSKMHKNHVSHEGLQGGHPILWPTSDPYKQTIVTNEKQLIFPGADTIPSRLVEPEVSFPAVKPVMRDLPLVPSPVMLRSSAIPDHEFIWQGDLEVRKIINQSAMHSGIQAHLSTLASPRVAEVVNKFPETFSLNEVPRKSTWPTQFEKLGTKEAHIALFFFAKDTESYERNYKPLVDNMIKNDLALKGNLDNVDLLIFASNQLPSNCQRWNMLYFLWGVFQGRKETNPQKNTSLPTSNVLPRDRDPKELCQTSSPSKHLEKGSSLRESSSNGIETRNGTDARSHENPNNRESSIERSPSKKEDIALKVEEAGVNHIPPQVTGSNSGDSLVRKVQKVEEQELGGRKDLPLTVMGSGIQSHGQDNPLEKDLNSSQASHRKRPLWELSNPANENSSAINQKVELNNDGLCEGSPNKKLKTENGSSSLCRDTSGHDSGIMKKSPKVVFPLDLNDDSEMVDNLSPLGNDENNNNRRLISGTVPNLELALGAEETTEATMGLLPFLSRSSNSGEQSNNSMNKEKQKADEEEEDDAEVAASLSLSLSFPGTEERKNVNTPLFLFRDLPR

binding [3]: binds
B4: CPL2, epitope-tagged in transgenic Arabidopsis (enzyme, UniProt Q5YDB5 1-770)
chain: T2 sequence
